# Measured values: PubChem BioAssay AID1487 (National Center for Advancing Translational Sciences (NCATS), 2009)
# Several values for one entry are separate records, joined by “and”; a condition that tells them apart may be missing. Equal entries are not always repeated. This is one part of the list. Further columns of the screen follow, without active or inactive calls. The list favours compounds with an active or inconclusive main result. Potencies come from curve fits of mixed quality, noted in brackets.
# Assay: qHTS Assay for Modulators of Lamin A Splicing
# Conditions: HeLa LMNA splicing GFP/RFP minigene ratio, 48 h
# Outline: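 Read-out is the ratio of GFP to DsRed2 object intensity, acquired by 488 nm laser-scanning cytometry on HeLa lamin A-EGFP minigene reporter cells. Compound incubation 48 hrs at 37 °C in Opti-MEM with 2% FBS; DMSO 0.5% final.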
# [1] = measured here: GFP splicing reporter channel
# [2] = measured here: RFP viability control channel
Structure (SMILES),AC50 [1],AC50 [2]
Cc1noc(C)c1-c1ccc2ncnc(NCCN3CCOCC3)c2c1,"12.6 µM [falling, partial curve]",
CS/C(=N/S(=O)(=O)c1ccc(C)cc1)c1ccccc1,,"15.8 µM [rising, partial curve]"
O=C(CSc1nc(Nc2ccccc2)nc(N2CCOCC2)n1)N1CCc2ccccc21,"3.98 µM [rising, full curve, poor fit]","3.98 µM [rising, full curve]"
COCCOC(=O)/C(C#N)=C/c1cn(Cc2ccccc2)nc1-c1cccnc1,"35.5 µM [falling, single point]",
CCN(CC)CCOC(=O)c1ccc(N)cc1,"0.0794 µM [rising, full curve, poor fit]",
O=C(Cc1ccc(F)cc1)Nc1cccc(-c2cn3c(n2)SCC3)c1,,"2.51 µM [falling, partial curve, poor fit]"
Cn1c(=O)c2c(nc(NC(Cc3ccccc3)C(=O)O)n2Cc2ccccc2)n(C)c1=O (centres undefined),"3.16 µM [falling, single point]","3.98 µM [falling, single point]"
CCOC(=O)C1CC(c2ccccc2)=NNC1=O (centres undefined),"0.251 µM [falling, full curve]",
CN1CCN(c2ncc3nc(-c4cn(C)c5ccccc45)c(=O)n(C[C@H]4CCCO4)c3n2)CC1,"31.6 µM [falling, single point]","20 µM [falling, partial curve]"
Cc1cnc(CNc2ncnc3ccc(-c4ccccc4C)cc23)cn1,"7.94 µM [falling, partial curve, poor fit]",
CCCCCCCn1c(=N)n(CC(=O)c2ccco2)c2ccccc21,,"12.6 µM [rising, partial curve, poor fit]"
COc1ccc(-n2c(O)c(C=NC3CC3)c(=O)[nH]c2=O)cc1,,"1.58 µM [falling, partial curve, poor fit]"
CCOc1cc(/C=N/O)ccc1OCc1ccc(F)cc1,"35.5 µM [rising, single point]",
CCN(CCCNC(=O)CCCN1C(=O)COc2ccc(C)cc21)c1cccc(C)c1,"35.5 µM [rising, single point]","35.5 µM [rising, single point]"
Cc1sc(NC(=O)c2ccco2)c(CN2CCN(c3ccccn3)CC2)c1C,"10 µM [rising, partial curve]","12.6 µM [rising, partial curve]"
COc1cc(C(=O)O)cc(NC(=O)c2cccs2)c1OC,,"0.00316 µM [falling, full curve, poor fit]"
CCN1CCc2c(sc(NC(=O)CSc3ccccc3)c2-c2nc3ccccc3s2)C1,,"35.5 µM [falling, partial curve, poor fit]"
CCC1=Nc2cc(C(=O)NCCCOC(C)C)ccc2Sc2ccc(C)cc21,,"3.98 µM [rising, single point]"
Cc1cc(Nc2ccc(Br)c(C)c2)n2nc(C)nc2n1,,"12.6 µM [rising, partial curve, poor fit]"
CC(C)CCNC(=O)CN(C(=O)Cn1nnc(-c2ccc(F)cc2)n1)C1CCCC1,"14.1 µM [rising, single point]",
CCOC(=O)C1=C(N)n2c(s/c(=C\c3ccco3)c2=O)=C(C(=O)OCC)C1c1ccco1 (centres undefined),"6.31 µM [falling, full curve]","4.47 µM [falling, full curve]"
CCn1c(CSc2nc3ccccc3s2)nnc1SCC(=O)c1ccc(O)c(O)c1,,"15.8 µM [rising, single point]"
COc1ccc(N(C(C)C(=O)N/N=C(\C)C(C)(C)C)S(C)(=O)=O)cc1 (centres undefined),"0.316 µM [falling, full curve, poor fit]","0.447 µM [falling, full curve]"
CCCCN(C)C(=O)c1ccc2c(c1)N(Cc1cccc(Cl)c1)C(=O)c1ccccc1S2=O (centres undefined),"35.5 µM [rising, single point]","17.8 µM [rising, single point]"
COc1cc(/C=N/Nc2ncc(C(F)(F)F)cc2Cl)cc(OC)c1OC,,"35.5 µM [rising, single point]"
CC1(C)CC(=O)C(C2(O)C(=O)Nc3ccccc32)CO1 (centres undefined),"2.82 µM [rising, partial curve, poor fit]","3.98 µM [rising, partial curve]"
CCOC(=O)C1(C)C=C(Nc2ccc(O)cc2)C(=O)N1c1ccc(O)cc1 (centres undefined),,"12.6 µM [rising, partial curve, poor fit]"

Structure (SMILES),AC50 [1],AC50 [2]
CN1CCN(C(=S)Nc2cccc(Cl)c2)CC1,,"17.8 µM [rising, single point]"
Cc1ccc(S(=O)(=O)N(C)c2ccc(C(=O)N3CCN(Cc4ccc5c(c4)OCO5)CC3)cc2)cc1,"4.47 µM [rising, partial curve]","6.31 µM [rising, partial curve]"
Cc1cc(C(=O)COC(=O)CNC(=O)c2ccccc2)c(C)n1CC1CCCO1 (centres undefined),"0.0562 µM [falling, full curve, poor fit]",
O=C(N/N=C/c1ccc(N2CCOCC2)s1)c1ccc(NS(=O)(=O)c2cccs2)cc1,"8.91 µM [falling, partial curve]","20 µM [falling, partial curve, poor fit]"
COc1ccc(OC)c(-c2nc(CN3CCCCC3c3cccnc3)c(C)o2)c1 (centres undefined),"3.98 µM [rising, single point]",
COc1ccc2oc(=O)c(-c3nc4ccc(C)cc4[nH]3)cc2c1,"1.58 µM [rising, single point]",
COc1ccc(N(C2CSC2)S(=O)(=O)c2ccccc2)cc1,"3.16 µM [rising, partial curve]",
CCOC(=O)c1cc(-c2ccc(F)cc2)n(CCC(=O)NCc2ccc(C)cc2)c1C,,"0.00501 µM [falling, full curve, poor fit]"
Cc1ccc(-n2ncc(C(=O)N3CCN(c4cccc(C)c4C)CC3)c2C2CCNCC2)c(C)c1,"0.00631 µM [falling, full curve, poor fit]","0.00501 µM [falling, full curve, poor fit]"
CC(C)c1nc(SCC(=O)Nc2nc3c(s2)CCCC3)c2ccccc2n1,"35.5 µM [falling, single point]",
COc1cc(NC(=O)c2cccc(C)c2)c(OC)cc1NC(=O)CN1CCOCC1,"0.708 µM [rising, single point]","0.631 µM [rising, single point]"
CCOC(=O)c1cccc(NC(=O)/C=C/c2ccc([N+](=O)[O-])cc2)c1,"10 µM [rising, partial curve]","17.8 µM [rising, partial curve]"
O=C(N/N=C/c1ccc([N+](=O)[O-])cc1)c1c[nH]c2ccccc12,,"17.8 µM [rising, single point]"
CCOC(=O)c1cc(NC(=O)c2ccco2)ccc1N1CCOCC1,,"0.282 µM [falling, full curve]"
O=C(CCCCC(=O)NC1CCCC1)NC1CCCC1,"31.6 µM [rising, partial curve]",
CN(C)C(=O)c1ccc(-c2nc(Nc3ccccc3)c3ccccc3n2)cc1,"25.1 µM [falling, single point]","25.1 µM [falling, single point]"
C=CCNC(=O)C1CCN(c2cc(C)nc(-c3ccccc3)n2)CC1,"0.141 µM [falling, full curve]","0.282 µM [falling, full curve, poor fit]"
COc1ccc(N(CC(=O)Nc2cc(C)ccc2OC)S(=O)(=O)c2c(C)noc2C)cc1,"12.6 µM [rising, single point]","31.6 µM [rising, single point]"
Cn1c(SCc2n[nH]c(=S)o2)nnc1-c1ccccc1,,"0.0562 µM [rising, full curve, poor fit]"
CC(=O)O/N=C(/c1nonc1N)N1CCN(c2ccc([N+](=O)[O-])cc2Cl)CC1,,"17.8 µM [rising, single point]"
COc1cccc(NS(=O)(=O)c2ccc3[nH]cc(C(=O)NCCc4ccc(C)cc4)c(=O)c3c2)c1,"4.47 µM [falling, partial curve]",
C=CC[n+]1c(-c2ccc(OC)cc2)csc1NNC(=O)Nc1ccccc1,,"8.91 µM [rising, partial curve]"
COc1ccccc1C(=O)NCCc1csc(-c2ccc(C(F)(F)F)cc2)n1,"35.5 µM [falling, single point]",
CC(=O)OC1COC(n2ccc3ccccc32)C(OC(C)=O)C1OC(C)=O (centres undefined),,"0.501 µM [rising, full curve, poor fit]"
O=C(CN1CCCCC1)NCC1(c2ccccc2)CCCC1,"0.1 µM [rising, full curve, poor fit]","0.0891 µM [rising, full curve, poor fit]"
COC(=O)/C(=C1\Oc2ccc(C(C)(C)C)cc2S1)C(F)(F)F,"0.1 µM [rising, full curve, poor fit]","0.0891 µM [rising, full curve, poor fit]"
CC[C@H](C)C(=O)O[C@H]1C[C@@H](C)C=C2C=C[C@H](C)[C@H](CC[C@@H]3C[C@@H](O)CC(=O)O3)[C@H]21,"11.2 µM [rising, partial curve, poor fit] and 5.62 µM [falling, partial curve, poor fit]","11.2 µM [rising, partial curve, poor fit] and 5.62 µM [falling, partial curve, poor fit]"

# Structures above with a COOH group:
Structure (SMILES),AC50 [1],AC50 [2]
Cn1c(=O)c2c(nc(NC(Cc3ccccc3)C(=O)O)n2Cc2ccccc2)n(C)c1=O (centres undefined),"3.16 µM [falling, single point]","3.98 µM [falling, single point]"
COc1cc(C(=O)O)cc(NC(=O)c2cccs2)c1OC,,"0.00316 µM [falling, full curve, poor fit]"
